Data as given in PubChem BioAssay AID1259405 (NCATS, 2018).

Aim: 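Knock-downs that lift recombinant protein yield in hamster ovary cells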 (primary screen)
Cell system: Chinese hamster CHO-K1 ovary cells with stable secreted eGFP expression
Reagents: single siRNA against mouse genes, 0.8 pmol siRNA per well (2 µl of 400 nM stock)
Timing: 3 days
Measurement: 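Per-well intracellular GFP measured by laser scanning cytometry, plus viability from ATP luminescence, each relative to plate median of non-targeting control wells, in %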
Reading the numbers: GFP, % of control: higher = more GFP per well, higher productivity; viability (ATP), % of control: higher = more viable cells (more ATP)
Hit rule: 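a knock-down is called active if GFP reaches 120% or more of non-targeting control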
The deposit covers about 50,000 reagents; shown is a random part of them. Over the whole deposit, about 4,000 (8%) got an active call. 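Mouse siRNA library applied to hamster cells; one well for each siRNA.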 The numbers tell different reagents against one gene apart. No sequences are given here.

Gene,siRNA no.,"GFP, % of control","viability (ATP), % of control",call
Tex48,1,105,85.7,inactive
Tex48,2,86.4,105,inactive
Tex48,3,112,77.5,inactive
Med24,1,76.7,85.9,inactive
Med24,2,69.3,60.2,inactive
Med24,3,71.4,63.9,inactive
Pitpna,1,82.9,98.8,inactive
Pitpna,2,126,97.9,active
Pigh,1,95.4,99.5,inactive
Pigh,2,98.6,118,inactive
Pigh,3,87.1,76.3,inactive
Smim29,1,135,99,active
Smim29,2,94.4,93.6,inactive
Smim29,3,104,94.2,inactive
Sf3b2,1,117,45.3,inactive
Sf3b2,2,174,27.3,active
Sf3b2,3,50.7,46.6,inactive
Trim46,1,114,56.6,inactive
Trim46,2,124,111,active
Trim46,3,69.1,126,inactive
Inka2,1,36.4,28.8,inactive
Inka2,2,96.9,111,inactive
Inka2,3,119,134,inactive
Cyb5rl,1,66.5,77.7,inactive
Cyb5rl,2,31.3,52.6,inactive
Cyb5rl,3,57.1,58,inactive
Chrm1,1,52.4,26.5,inactive
Chrm1,2,61.1,67.5,inactive
Chrm1,3,62.2,66.1,inactive
Ms4a6b,1,109,79.2,inactive
Ms4a6b,2,79.5,65.3,inactive
Ms4a6b,3,92.8,86,inactive
Sbsn,1,87.8,90.6,inactive
Sbsn,2,44.6,79.4,inactive
Sbsn,3,50.9,97.5,inactive
Bhmt,1,88.1,78.9,inactive
Bhmt,2,90.3,119,inactive
Bhmt,3,71.6,84.8,inactive
Lat2,1,57.7,74.3,inactive
Lat2,2,112,61.5,inactive
Lat2,3,78.7,84.7,inactive
Mgp,1,94.6,93.8,inactive
Mgp,2,74.4,90.8,inactive
Dclk2,1,40,53.1,inactive
Dclk2,2,62.5,54.9,inactive
Cdca5,1,96.3,107,inactive
Cdca5,2,63.7,58.8,inactive
Cdca5,3,81.6,92.7,inactive
Cfd,1,114,108,inactive
Cfd,2,68,64.4,inactive
Psca,1,21.5,25.7,inactive
Psca,2,14.5,24.8,inactive
Psca,3,75.8,97.1,inactive
Acot2,1,70.6,115,inactive
Acot2,2,123,82.3,active
Tulp4,1,99.1,61.7,inactive
Tulp4,2,81.3,51.6,inactive
Tulp4,3,72.8,81.4,inactive
Krtap5-2,1,72,80.2,inactive
Krtap5-2,2,70,62.5,inactive
Krtap5-2,3,75.7,101,inactive
Zfp182,1,67.3,70.9,inactive
Zfp182,2,38.2,29,inactive
Zfp182,3,84.4,80.2,inactive
Rs1,1,58.9,89.9,inactive
Rs1,2,58.4,69.3,inactive
Rs1,3,75.7,98.1,inactive
Grik4,1,86.2,90.5,inactive
Grik4,2,66.2,72.6,inactive
Grik4,3,67.1,50.8,inactive
Lactb,1,92.2,91.6,inactive
Lactb,2,96.3,94.7,inactive
Lactb,3,58.3,66.2,inactive
St6galnac3,1,47.7,27.6,inactive
St6galnac3,2,82.7,155,inactive
St6galnac3,3,101,122,inactive
Osbpl8,1,76.2,65.9,inactive
Osbpl8,2,63.1,72.7,inactive
Osbpl8,3,78.6,85.1,inactive
Hs6st1,1,288,157,active
Hs6st1,2,86.3,82.7,inactive
Hs6st1,3,64.8,49,inactive
Cabp7,1,69.2,93.5,inactive
Cabp7,2,86.7,83.1,inactive
Mocs1,1,63.3,87.7,inactive
Mocs1,2,198,63.1,active
Mocs1,3,71.7,58.8,inactive
Pax6,1,112,59,inactive
Pax6,2,120,68.8,active
Pax6,3,125,115,active
Or5b104,1,72.3,48.7,inactive
Or5b104,2,100,86.2,inactive
Or5b104,3,71.7,59.9,inactive
Ttc27,1,74.1,82.3,inactive
Ttc27,2,32.6,23.5,inactive
Ttc27,3,62.9,73.1,inactive
Lrch4,1,34.7,61.8,inactive
Lrch4,2,84.5,85.8,inactive
Lrch4,3,106,84.8,inactive
Cacng1,1,86,113,inactive
Cacng1,2,108,89.2,inactive
Aldh3a2,1,78.8,72,inactive
Aldh3a2,2,85.5,96.2,inactive
Aldh3a2,3,83.3,58.6,inactive
1700024G13Rik,1,53,57.4,inactive
1700024G13Rik,2,111,61.3,inactive
1700024G13Rik,3,90.1,114,inactive
